Test results taken from publication PMC12685520.

Protein sequences, listed by entry. Tags and fused reporters are not part of them.
UniProt Q99623: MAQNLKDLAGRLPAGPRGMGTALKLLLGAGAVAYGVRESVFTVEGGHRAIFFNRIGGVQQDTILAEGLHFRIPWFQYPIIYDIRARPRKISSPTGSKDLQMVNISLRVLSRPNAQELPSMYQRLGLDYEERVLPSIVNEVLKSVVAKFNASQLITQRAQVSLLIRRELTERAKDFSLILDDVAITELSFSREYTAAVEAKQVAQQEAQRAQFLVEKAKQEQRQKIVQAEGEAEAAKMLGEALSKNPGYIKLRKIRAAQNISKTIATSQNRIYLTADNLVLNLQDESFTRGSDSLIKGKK
UniProt Q8IZ07: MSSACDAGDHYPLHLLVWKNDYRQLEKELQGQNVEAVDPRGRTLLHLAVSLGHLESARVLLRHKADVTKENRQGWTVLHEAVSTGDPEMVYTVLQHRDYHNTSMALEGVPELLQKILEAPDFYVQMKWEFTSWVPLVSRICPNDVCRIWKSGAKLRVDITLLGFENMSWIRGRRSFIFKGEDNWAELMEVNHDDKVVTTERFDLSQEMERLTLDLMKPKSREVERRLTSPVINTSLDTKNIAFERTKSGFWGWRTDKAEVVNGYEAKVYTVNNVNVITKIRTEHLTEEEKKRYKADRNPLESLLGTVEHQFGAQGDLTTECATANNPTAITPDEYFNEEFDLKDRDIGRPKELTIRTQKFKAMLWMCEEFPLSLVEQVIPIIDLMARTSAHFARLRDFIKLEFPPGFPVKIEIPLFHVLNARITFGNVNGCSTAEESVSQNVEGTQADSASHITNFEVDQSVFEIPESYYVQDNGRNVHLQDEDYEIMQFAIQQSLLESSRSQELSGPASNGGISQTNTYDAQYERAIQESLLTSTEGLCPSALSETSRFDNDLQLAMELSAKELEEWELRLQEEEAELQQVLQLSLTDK
UniProt O60260: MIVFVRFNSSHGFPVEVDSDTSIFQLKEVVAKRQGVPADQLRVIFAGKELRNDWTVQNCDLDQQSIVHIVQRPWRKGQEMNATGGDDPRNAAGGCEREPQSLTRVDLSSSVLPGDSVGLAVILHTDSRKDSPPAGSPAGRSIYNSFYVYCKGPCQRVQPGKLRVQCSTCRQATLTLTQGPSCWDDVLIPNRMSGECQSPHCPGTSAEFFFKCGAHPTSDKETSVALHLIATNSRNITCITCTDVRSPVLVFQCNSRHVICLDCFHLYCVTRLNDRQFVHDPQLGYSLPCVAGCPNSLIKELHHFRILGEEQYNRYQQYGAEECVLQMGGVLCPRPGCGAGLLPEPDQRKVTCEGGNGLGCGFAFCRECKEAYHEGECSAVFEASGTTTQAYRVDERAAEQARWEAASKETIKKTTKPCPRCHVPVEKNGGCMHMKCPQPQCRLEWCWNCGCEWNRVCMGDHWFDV

Target: PHB2-StrepII-FLAG (human) (UniProt Q99623)
Test: affinity purification with mass spectrometry; tandem purification of PHB2-StrepII-FLAG complexes (Strep-Tactin Superflow resin, then anti-FLAG M2 affinity gel) from HeLa Parkin cells treated with DMSO or OA for 4 h; 25 mM Hepes pH 7.4, 150 mM NaCl, 1 mM EDTA; label-free mass spectrometry

## ankyrin repeat domain-containing protein 13 A (ANKRD13A), endogenous (from UniProt Q8IZ07 1-590)
  binding: binds

## E3 ubiquitin-protein ligase Parkin (from UniProt O60260 1-465) (enzyme)
  binding: binds

Results are given in words; binding and its absence hold for the method and conditions named. In cells and extracts the contact can be indirect. These calls come from enrichment with a bait or labelling near it, and not all partners need be listed.
